# This is one part of the list.
# Legend:
# Test in all cases: glycan array binding signal (z-score within array); higher = stronger binding
# Conditions in all cases: glycan notation: IUPAC condensed, linker removed
# Gal(b1-4)Glc = target: Gal(b1-4)Glc
# Outline: (§1)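 Glycan array binding is given as a within-array Z-score, which can be read as non-binding when negative. The arrays, 3228 of them, came from the Consortium for Functional Glycomics database and were retained only where the protein sequence was available. Z-scores were averaged across arrays of the same protein sequence at different concentrations or buffers and across linkers.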
# Gal(b1-4)Glc6S = target: Gal(b1-4)Glc6S
# Outline: as §1
# Gal(b1-4)GlcNAc = target: Gal(b1-4)GlcNAc
# Outline: as §1
# [1] = target: Gal(b1-4)GlcNAc(a1-6)Gal(b1-4)GlcNAc
# Outline: as §1
# Gal(b1-4)GlcNAc(b1-2)Man = target: Gal(b1-4)GlcNAc(b1-2)Man
# Outline: as §1
# [2] = target: Gal(b1-4)GlcNAc(b1-2)Man(a1-3)Man(b1-4)GlcNAc(b1-4)GlcNAc
# Outline: as §1
# [3] = target: Gal(b1-4)GlcNAc(b1-2)Man(a1-3)[Gal(b1-4)GlcNAc(b1-2)Man(a1-6)]Man(b1-4)GlcNAc(b1-4)GlcNAc
# Outline: as §1
# [4] = target: Gal(b1-4)GlcNAc(b1-2)Man(a1-3)[Gal(b1-4)GlcNAc(b1-2)Man(a1-6)]Man(b1-4)GlcNAc(b1-4)[Fuc(a1-6)]GlcNAc
# Outline: as §1
# [5] = target: Gal(b1-4)GlcNAc(b1-2)Man(a1-3)[Gal(b1-4)GlcNAc(b1-2)Man(a1-6)][Gal(b1-4)GlcNAc(b1-4)]Man(b1-4)GlcNAc(b1-4)[Fuc(a1-6)]GlcNAc
# Outline: as §1
# [6] = target: Gal(b1-4)GlcNAc(b1-2)Man(a1-3)[Gal(b1-4)GlcNAc(b1-2)Man(a1-6)][GlcNAc(b1-4)]Man(b1-4)GlcNAc(b1-4)[Fuc(a1-6)]GlcNAc
# Outline: as §1
# [7] = target: Gal(b1-4)GlcNAc(b1-2)Man(a1-3)[GlcNAc(b1-2)Man(a1-6)]Man(b1-4)GlcNAc(b1-4)GlcNAc
# Outline: as §1
# [8] = target: Gal(b1-4)GlcNAc(b1-2)Man(a1-3)[GlcNAc(b1-4)][Gal(b1-4)GlcNAc(b1-2)Man(a1-6)]Man(b1-4)GlcNAc(b1-4)GlcNAc
# Outline: as §1
# [9] = target: Gal(b1-4)GlcNAc(b1-2)Man(a1-3)[Man(a1-6)]Man(b1-4)GlcNAc(b1-4)GlcNAc
# Outline: as §1
# [10] = target: Gal(b1-4)GlcNAc(b1-2)Man(a1-6)Man(b1-4)GlcNAc(b1-4)GlcNAc
# Outline: as §1
# [11] = target: Gal(b1-4)GlcNAc(b1-2)Man(a1-6)[GlcNAc(b1-2)Man(a1-3)]Man(b1-4)GlcNAc(b1-4)GlcNAc
# Outline: as §1
# [12] = target: Gal(b1-4)GlcNAc(b1-2)Man(a1-6)[Man(a1-3)]Man(b1-4)GlcNAc(b1-4)GlcNAc
# Outline: as §1
# [13] = target: Gal(b1-4)GlcNAc(b1-2)[Gal(b1-4)GlcNAc(b1-4)]Man(a1-3)[Gal(b1-4)GlcNAc(b1-2)Man(a1-6)]Man(b1-4)GlcNAc(b1-4)GlcNAc
# Outline: as §1
# [14] = target: Gal(b1-4)GlcNAc(b1-2)[Gal(b1-4)GlcNAc(b1-4)]Man(a1-3)[Gal(b1-4)GlcNAc(b1-2)[Gal(b1-4)GlcNAc(b1-6)]Man(a1-6)]Man(b1-4)GlcNAc(b1-4)GlcNAc
# Outline: as §1
# [15] = target: Gal(b1-4)GlcNAc(b1-2)[Gal(b1-4)GlcNAc(b1-4)]Man(a1-3)[GlcNAc(b1-4)][Gal(b1-4)GlcNAc(b1-2)Man(a1-6)]Man(b1-4)GlcNAc(b1-4)GlcNAc
# Outline: as §1
# [16] = target: Gal(b1-4)GlcNAc(b1-2)[Gal(b1-4)GlcNAc(b1-4)]Man(a1-3)[GlcNAc(b1-4)][Gal(b1-4)GlcNAc(b1-2)[Gal(b1-4)GlcNAc(b1-6)]Man(a1-6)]Man(b1-4)GlcNAc(b1-4)GlcNAc
# Outline: as §1
# [17] = target: Gal(b1-4)GlcNAc(b1-2)[Gal(b1-4)GlcNAc(b1-6)]Man(a1-6)[Gal(b1-4)GlcNAc(b1-2)Man(a1-3)]Man(b1-4)GlcNAc(b1-4)GlcNAc
# Outline: as §1
# [18] = target: Gal(b1-4)GlcNAc(b1-2)[Gal(b1-4)GlcNAc(b1-6)]Man(a1-6)[Gal(b1-4)GlcNAc(b1-2)Man(a1-3)]Man(b1-4)GlcNAc(b1-4)[Fuc(a1-6)]GlcNAc
# Outline: as §1
# [19] = target: Gal(b1-4)GlcNAc(b1-2)[Gal(b1-4)GlcNAc(b1-6)]Man(a1-6)[GlcNAc(b1-4)][Gal(b1-4)GlcNAc(b1-2)Man(a1-3)]Man(b1-4)GlcNAc(b1-4)GlcNAc
# Outline: as §1
# [20] = target: Gal(b1-4)GlcNAc(b1-2)[Gal(b1-4)GlcNAc(b1-6)]Man(a1-6)[GlcNAc(b1-4)][Gal(b1-4)GlcNAc(b1-2)[Gal(b1-4)GlcNAc(b1-4)]Man(a1-3)]Man(b1-4)GlcNAc(b1-4)[Fuc(a1-6)]GlcNAc
# Outline: as §1
# [21] = target: Gal(b1-4)GlcNAc(b1-3)Gal(b1-3)GalNAc
# Outline: as §1
# [22] = target: Gal(b1-4)GlcNAc(b1-3)Gal(b1-3)GlcNAc
# Outline: as §1
# [23] = target: Gal(b1-4)GlcNAc(b1-3)Gal(b1-4)Glc
# Outline: as §1
# [24] = target: Gal(b1-4)GlcNAc(b1-3)Gal(b1-4)GlcNAc
# Outline: as §1
# [25] = target: Gal(b1-4)GlcNAc(b1-3)Gal(b1-4)GlcNAc(b1-2)Man(a1-3)[Gal(b1-4)GlcNAc(b1-3)Gal(b1-4)GlcNAc(b1-2)Man(a1-6)]Man(b1-4)GlcNAc(b1-4)GlcNAc
# Outline: as §1
# [26] = target: Gal(b1-4)GlcNAc(b1-3)Gal(b1-4)GlcNAc(b1-2)Man(a1-3)[Gal(b1-4)GlcNAc(b1-3)Gal(b1-4)GlcNAc(b1-2)Man(a1-6)]Man(b1-4)GlcNAc(b1-4)[Fuc(a1-6)]GlcNAc
# Outline: as §1
binder,measurement,setting,value
GS7807I-bvu-563-22-563 (Bacteroides vulgatus) (protein) IFSSCTDDFEKLNTSNIQVDPADLPFAAQCTEPMTYCYPPQQNMFQFWTNLTIDLYGGYFMTPNGNFTNGDMGENRGHSGGMYENYYLHIFNNTRRIIAQCDASGERGLSGVMRIVQAYGTLMTTDAYGPIPYSSILSGENEVYFEFDSQKDLYKAMLEDLSTAITDISAMGADEIAKLKSFDCWCNGDKDLWVKIANTMKLRMALRLSKRETEAGNAGMNLKAIATEAAQNTLATVNKDILIDKSLENEMWLMFNWGDCGFNANLVTIMSGTKDPRQPLYMTLNTGDIKNEAGTTTVAANSQYLGIRFASGLPAKPNSWGNFSGWIQGNNGSSYSMPLPIMKAAEAYFLLAEAKLRWDIGSESVKNLYENGIRVSMTNELAYRGAYAGIKEYPEGAVDAYINGTSTQIDYTDPIKAELSTPAVNKLSVKWDESASNEEKLERIITQKWLALFPLSTEGWAEQRRTGYPRFFPAFVNESNGAVNTEEGVRRVIYSSQAYDANAKGVEGGIKLLDEENSSKFGISGDKGGTHLWWDNADKGNF,glycan array binding signal (z-score),Gal(b1-4)Glc,-0.352
same,glycan array binding signal (z-score),Gal(b1-4)Glc6S,0.814
same,glycan array binding signal (z-score),Gal(b1-4)GlcNAc,-0.655
same,glycan array binding signal (z-score),[1],-0.151
same,glycan array binding signal (z-score),Gal(b1-4)GlcNAc(b1-2)Man,1.61
same,glycan array binding signal (z-score),[2],-0.54
same,glycan array binding signal (z-score),[3],-0.914
same,glycan array binding signal (z-score),[4],0.927
same,glycan array binding signal (z-score),[5],0.521
same,glycan array binding signal (z-score),[6],-0.448
same,glycan array binding signal (z-score),[7],-1.36
same,glycan array binding signal (z-score),[8],-0.694
same,glycan array binding signal (z-score),[9],-0.687
same,glycan array binding signal (z-score),[10],0.492
same,glycan array binding signal (z-score),[11],-0.401
same,glycan array binding signal (z-score),[12],-0.283
same,glycan array binding signal (z-score),[13],0.564
same,glycan array binding signal (z-score),[14],0.947
same,glycan array binding signal (z-score),[15],-0.163
same,glycan array binding signal (z-score),[16],0.62
same,glycan array binding signal (z-score),[17],-0.053
same,glycan array binding signal (z-score),[18],-0.297
same,glycan array binding signal (z-score),[19],-0.385
same,glycan array binding signal (z-score),[20],1.01
same,glycan array binding signal (z-score),[21],-0.162
same,glycan array binding signal (z-score),[22],-0.847
same,glycan array binding signal (z-score),[23],-0.582
same,glycan array binding signal (z-score),[24],-1.17
same,glycan array binding signal (z-score),[25],2.07
same,glycan array binding signal (z-score),[26],0.065

# No new results follow: entries from further up.
binder,measurement,setting,value
GS7807I-bvu-563-22-563 (Bacteroides vulgatus) (protein) IFSSCTDDFEKLNTSNIQVDPADLPFAAQCTEPMTYCYPPQQNMFQFWTNLTIDLYGGYFMTPNGNFTNGDMGENRGHSGGMYENYYLHIFNNTRRIIAQCDASGERGLSGVMRIVQAYGTLMTTDAYGPIPYSSILSGENEVYFEFDSQKDLYKAMLEDLSTAITDISAMGADEIAKLKSFDCWCNGDKDLWVKIANTMKLRMALRLSKRETEAGNAGMNLKAIATEAAQNTLATVNKDILIDKSLENEMWLMFNWGDCGFNANLVTIMSGTKDPRQPLYMTLNTGDIKNEAGTTTVAANSQYLGIRFASGLPAKPNSWGNFSGWIQGNNGSSYSMPLPIMKAAEAYFLLAEAKLRWDIGSESVKNLYENGIRVSMTNELAYRGAYAGIKEYPEGAVDAYINGTSTQIDYTDPIKAELSTPAVNKLSVKWDESASNEEKLERIITQKWLALFPLSTEGWAEQRRTGYPRFFPAFVNESNGAVNTEEGVRRVIYSSQAYDANAKGVEGGIKLLDEENSSKFGISGDKGGTHLWWDNADKGNF,glycan array binding signal (z-score),[11],-0.401
same,glycan array binding signal (z-score),[12],-0.283
